These are yes or no findings as the source states them, for the method shown. Some results given as binding are weak or reduced against the parent protein; the word gives no strength. Values belong to the binder of their own block, whether it stands above or below them.
What was measured:
Assay in all cases: two-hybrid; Matchmaker Two-Hybrid System (Clontech); pGBKT7 (BD) and pGADT7 (AD) fusions cotransformed in yeast; SD/-Trp/-Leu/-His/-Ade/X-α-gal (40 μg/ml) with 5 mM 3-AT; grade by the number of clones
[1] = molecular target: T1, AGAMOUS-LIKE 24 (AGL24) of Arabidopsis (Arabidopsis), O82794; conditions: remark: other sources report otherwise
T1 chain: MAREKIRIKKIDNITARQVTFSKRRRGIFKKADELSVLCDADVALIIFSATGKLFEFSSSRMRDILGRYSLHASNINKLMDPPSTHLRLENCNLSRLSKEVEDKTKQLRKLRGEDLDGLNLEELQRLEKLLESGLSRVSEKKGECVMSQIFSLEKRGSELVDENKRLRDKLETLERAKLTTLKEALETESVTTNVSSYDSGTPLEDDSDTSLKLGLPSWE

The chains behind the UniProt entries cited, without tags or fusion partners.
UniProt O64645: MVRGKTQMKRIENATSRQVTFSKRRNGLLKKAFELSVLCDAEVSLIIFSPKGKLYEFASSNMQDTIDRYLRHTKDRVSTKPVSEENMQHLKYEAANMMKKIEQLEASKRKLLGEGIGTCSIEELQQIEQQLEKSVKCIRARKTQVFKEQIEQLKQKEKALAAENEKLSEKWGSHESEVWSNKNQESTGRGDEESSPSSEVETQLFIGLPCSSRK

[2] = molecular target: SUPPRESSOR OF OVEREXPRESSION OF CONSTANS 1 (SOC1) of Arabidopsis (Arabidopsis) (UniProt O64645)
[3] = molecular target: …3 (SEP3) of Arabidopsis (Arabidopsis) (UniProt O22456)

binding [1]: binds
B1: AGAMOUS-LIKE 24 (AGL24) of Arabidopsis, O82794 1-220 (protein)
chain: T1 chain

binding [2]: binds
binding [3]: binds
B2: AGAMOUS-LIKE 24 (AGL24) of Arabidopsis (protein, UniProt O82794 1-220)
chain: T1 chain
